Reference: patent publication US20200377564

Assays:
Experiment in all cases: activity in cells
[1] = tested on: T1, ZF3 (ZF3-5)-p65 synTF (Artificial Sequence); details: protein in cells, protein details: p65(361-551) activation domain fusion, only the site is given
T1 sequence: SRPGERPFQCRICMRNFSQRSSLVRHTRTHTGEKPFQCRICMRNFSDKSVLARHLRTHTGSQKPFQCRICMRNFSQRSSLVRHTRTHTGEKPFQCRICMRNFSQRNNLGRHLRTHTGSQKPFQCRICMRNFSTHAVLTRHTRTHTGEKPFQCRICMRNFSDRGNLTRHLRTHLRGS

[2] = tested on: T2, KRAB-ZF3-ERT2 synTF (Artificial Sequence); details: 4OHT-induced repression of reporter in HEK293; 4X ZF3 BS; protein in cells; protein details: KRAB and ERT2 fusion; only the site is given
T2 sequence: T1 sequence

[3] = tested on: T3, ZF3-p65-ERT2 synTF (Artificial Sequence); details: 4OHT-induced activation in Jurkat and HEK293; 4X ZF3 BS-minCMV-mCherry; protein in cells; protein details: p65 and ERT2 fusion; only the site is given
T3 sequence: T1 sequence

[4] = non-cognate reporter not activated

Sequence	activity on this sequence ([1]; HEK293FT integrated reporter, 4 tandem DBMs upstream of minimal promoter, strong activation)	activity on this sequence [2]	activity on this sequence [3]	activity on this sequence [1, 4]
AGACGTCGAAGTAGCCGTAG (double strand) [Target 3 (ZF3 DBM)]	active	active	active	–
CGGCGTAGCCGATGTCGCGC (double strand) [Target 10 (ZF10 DBM)]	–	–	–	not active
CGTCGAAGTCGAAGTCGACC (double strand) [Target 1 (ZF1 DBM)]	–	–	–	not active

For some assays here: No signal at the amounts used counts as a negative. Protein sequences can lack the tags named with them. For some assays here: Construct, isoform or probe ends are uncertain for at least one entry.
